Assay [1] has as its target plasmin-treated CDCP1 (human). Kind of assay: BLI; fl-CDCP1 ectodomain treated with plasmin.
In assay [2] the target is plasmin-treated CDCP1 (human). Kind of assay: BLI (Octet), plasmin-treated fl-CDCP1 ectodomain on the sensor, IgG CL03 as analyte; concentration not given.

These results are taken from patent US20240376224A1 (University of California, published 2024).

No constants are given. Whether binding was seen depends on the method and setting. A result given as binding can be weak or reduced; the word gives no strength.

B1: CL03 IgG (antibody, V domains shown)
VH: EVQLVESGGGLVQPGGSLRLSCAASGFNFSSYSIHWVRQAPGKGLEWVASIYPYSGSTYYADSVKGRFTISADTSKNTAYLQMNSLRAEDTAVYYCARQSHSYYSHTWWVSYGMDYWGQGTLVTVSS
VL: DIQMTQSPSSLSASVGDRVTITCRASQSVSSAVAWYQQKPGKAPKLLIYSASSLYSGVPSRFSGSRSGTDFTLTISSLQPEDFATYYCQQSGQRPITFGQGTKVEIKR
notes: also called IgG CL03
As for B1, the binding result in assay [1] and in assay [2] was “binds” each time.
